The target in test [1] is T1, GST-p130Cas-SH3 (UniProt P56945).
T1 sequence: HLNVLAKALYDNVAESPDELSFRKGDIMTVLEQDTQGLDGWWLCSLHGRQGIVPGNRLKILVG
The test is described as follows: pull-down; 12 ug GST-fusion protein on glutathione-sepharose 4 fast flow beads with 1 mg K562 protein extract in lysis buffer, 2 h at 4 °C, 3 washes, immunoblot; also lysates of shAbi1-2, shCbl-1, shp130Cas-5 and shControl K562 clones; only the target purified. (In general: Immunoblotting shows a protein as a band on a membrane.)

Sequences of proteins named here, by UniProt entry; tags and fusion partners are left off. Residues count along the entry.
UniProt Q8IZP0: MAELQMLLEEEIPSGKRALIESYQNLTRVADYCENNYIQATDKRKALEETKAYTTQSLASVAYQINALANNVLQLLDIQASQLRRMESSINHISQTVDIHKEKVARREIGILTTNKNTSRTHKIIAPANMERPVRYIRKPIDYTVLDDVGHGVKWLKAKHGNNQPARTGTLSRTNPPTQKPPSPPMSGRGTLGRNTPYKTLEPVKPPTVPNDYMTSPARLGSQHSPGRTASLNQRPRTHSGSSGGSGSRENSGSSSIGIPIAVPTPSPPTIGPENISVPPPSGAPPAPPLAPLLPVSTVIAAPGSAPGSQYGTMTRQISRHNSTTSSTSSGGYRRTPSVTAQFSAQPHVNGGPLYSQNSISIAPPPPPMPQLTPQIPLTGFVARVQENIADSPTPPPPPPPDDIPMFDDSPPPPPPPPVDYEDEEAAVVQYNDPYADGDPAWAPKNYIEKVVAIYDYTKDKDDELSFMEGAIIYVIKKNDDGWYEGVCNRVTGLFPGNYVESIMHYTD
UniProt P00519, residues 61-121: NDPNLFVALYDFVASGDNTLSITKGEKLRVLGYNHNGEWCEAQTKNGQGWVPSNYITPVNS

Test [2] addresses Abi1 (human (endogenous in K562)) (UniProt Q8IZP0). The test is described as follows: co-IP; endogenous proteins immunoprecipitated from precleared K562 whole cell lysates (GammaBind G Sepharose), immunoblot; in Figures 5A and 6E cells cultured on 10 ug/ml fibronectin for 24 h; in Figure 6E shC3G or shCT clones.
The target in test [3] is GST-Abl-SH3 (UniProt P00519). The experiment in a line: pull-down; 12 ug GST-fusion protein on glutathione-sepharose 4 fast flow beads with 1 mg K562 protein extract in lysis buffer, 2 h at 4 °C, 3 washes, immunoblot; also lysates of shAbi1-2, shCbl-1, shp130Cas-5 and shControl K562 clones; only the target purified.

These are yes or no findings as the source states them, for the method shown. Binding seen in cells or lysates may run through a third protein. Some entries that bind do so weakly or less than the wild type. For part of these data: Sequences can lack the tags named with a protein.

B1: p140C3G (protein, UniProt Q13905 1-1077)
chain: MDTDSQRSHLSSFTMKLMDKFHSPKIKRTPSKKGKPAEVSVKIPEKPVNKEATDRFLPEGYPLPLDLEQQAVEFMSTSAVASRSQRQKNLSWLEEKEKEVVSALRYFKTIVDKMAIDKKVLEMLPGSASKVLEAILPLVQNDPRIQHSSALSSCYSRVYQSLANLIRWSDQVMLEGVNSEDKEMVTTVKGVIKAVLDGVKELVRLTIEKQGRPSPTSPVKPSSPASKPDGPAELPLTDREVEILNKTTGMSQSTELLPDATDEEVAPPKPPLPGIRVVDNSPPPALPPKKRQSAPSPTRVAVVAPMSRATSGSSLPVGINRQDFDVDCYAQRRLSGGSHSYGGESPRLSPCSSIGKLSKSDEQLSSLDRDSGQCSRNTSCETLDHYDPDYEFLQQDLSNADQIPQQTAWNLSPLPESLGESGSPFLGPPFQLPLGGHPQPDGPLAPGQQTDTPPALPEKKRRSAASQTADGSGCRVSYERHPSQYDNISGEDLQSTAPIPSVPYAPFAAILPFQHGGSSAPVEFVGDFTAPESTGDPEKPPPLPEKKNKHMLAYMQLLEDYSEPQPSMFYQTPQNEHIYQQKNKLLMEVYGFSDSFSGVDSVQELAPPPALPPKQRQLEPPAGKDGHPRDPSAVSGVPGKDSRDGSERAPKSPDALESAQSEEEVDELSLIDHNEIMSRLTLKQEGDDGPDVRGGSGDILLVHATETDRKDLVLYCEAFLTTYRTFISPEELIKKLQYRYEKFSPFADTFKKRVSKNTFFVLVRVVDELCLVELTEEILKLLMELVFRLVCNGELSLARVLRKNILDKVDQKKLLRCATSSQPLAARGVAARPGTLHDFHSHEIAEQLTLLDAELFYKIEIPEVLLWAKEQNEEKSPNLTQFTEHFNNMSYWVRSIIMLQEKAQDRERLLLKFIKIMKHLRKLNNFNSYLAILSALDSAPIRRLEWQKQTSEGLAEYCTLIDSSSSFRAYRAALSEVEPPCIPYLGLILQDLTFVHLGNPDYIDGKVNFSKRWQQFNILDSMRCFQQAHYDMRRNDDIINFFNDFSDHLAEEALWELSLKIKPRNITRRKTDREEKT
Regarding B1, the binding entry in test [1] is given as “binds”.

B2: p130Cas (protein, UniProt P56945-1 1-870)
chain: MNHLNVLAKALYDNVAESPDELSFRKGDIMTVLEQDTQGLDGWWLCSLHGRQGIVPGNRLKILVGMYDKKPAGPGPGPPATPAQPQPGLHAPAPPASQYTPMLPNTYQPQPDSVYLVPTPSKAQQGLYQVPGPSPQFQSPPAKQTSTFSKQTPHHPFPSPATDLYQVPPGPGGPAQDIYQVPPSAGMGHDIYQVPPSMDTRSWEGTKPPAKVVVPTRVGQGYVYEAAQPEQDEYDIPRHLLAPGPQDIYDVPPVRGLLPSQYGQEVYDTPPMAVKGPNGRDPLLEVYDVPPSVEKGLPPSNHHAVYDVPPSVSKDVPDGPLLREETYDVPPAFAKAKPFDPARTPLVLAAPPPDSPPAEDVYDVPPPAPDLYDVPPGLRRPGPGTLYDVPRERVLPPEVADGGVVDSGVYAVPPPAEREAPAEGKRLSASSTGSTRSSQSASSLEVAGPGREPLELEVAVEALARLQQGVSATVAHLLDLAGSAGATGSWRSPSEPQEPLVQDLQAAVAAVQSAVHELLEFARSAVGNAAHTSDRALHAKLSRQLQKMEDVHQTLVAHGQALDAGRGGSGATLEDLDRLVACSRAVPEDAKQLASFLHGNASLLFRRTKATAPGPEGGGTLHPNPTDKTSSIQSRPLPSPPKFTSQDSPDGQYENSEGGWMEDYDYVHLQGKEEFEKTQKELLEKGSITRQGKSQLELQQLKQFERLEQEVSRPIDHDLANWTPAQPLAPGRTGGLGPSDRQLLLFYLEQCEANLTTLTNAVDAFFTAVATNQPPKIFVAHSKFVILSAHKLVFIGDTLSRQAKAADVRSQVTHYSNLLCDLLRGIVATTKAAALQYPSPSAAQDMVERVKELGHSTQQFRRVLGQLAAA
As for B2, the binding result in test [2] and in test [3] was “binds” throughout.

Values taken from publication PMC3629710.
